Measurements reported in PubChem BioAssay AID504847 (National Center for Advancing Translational Sciences (NCATS), 2011).
Where “and” joins values, the source holds several entries; their conditions need not be identical. Equal values may be shown once. The whole screen tested about 400,000 compounds, of which about 3,700 (0.93%) were called active. Inconclusive means that the source gave no clear call. Such entries were picked first, then a sample of the others. Calls follow the shape of the dose curve; as a rule, active = well fitted inhibition curve with a large enough effect; inconclusive = small, poorly fitted or top-dose-only effect, or another doubt; inactive = no such curve, though single readings can be large or run the other way. Where the call is inconclusive, the potency comes from a doubtful curve fit. Where a structure was tested more than once in an assay, its records may differ in their call.

The chains behind the UniProt entries cited, without tags or fusion partners. Where a name states a change or a piece, a line headed by the entry shows the natural chain unless it says otherwise.
UniProt P11473: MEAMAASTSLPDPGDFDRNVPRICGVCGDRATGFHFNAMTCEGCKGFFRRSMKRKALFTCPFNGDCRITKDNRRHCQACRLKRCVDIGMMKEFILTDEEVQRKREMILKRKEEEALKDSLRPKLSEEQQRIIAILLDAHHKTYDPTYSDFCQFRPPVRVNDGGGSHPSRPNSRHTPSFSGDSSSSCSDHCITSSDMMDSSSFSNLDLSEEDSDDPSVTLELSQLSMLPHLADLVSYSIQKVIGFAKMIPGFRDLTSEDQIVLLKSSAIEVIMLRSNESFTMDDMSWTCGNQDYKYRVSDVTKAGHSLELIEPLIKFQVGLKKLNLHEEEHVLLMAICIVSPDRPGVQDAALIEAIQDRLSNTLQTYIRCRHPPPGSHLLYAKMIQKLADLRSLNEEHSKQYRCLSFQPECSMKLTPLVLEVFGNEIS

These compounds were tested against Vitamin D3 receptor (Homo sapiens) (UniProt P11473) (assay: Inhibitors of the vitamin D receptor (VDR): qHTS). Details: VDR-SRC2-3 peptide fluorescence polarization, 2 h; max response, negative = inhibition: hits give low values.
Outline: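 Compounds are added to VDR with labelled SRC2-3 coactivator peptide and held 2 h at room temperature. Inhibition of the VDR–peptide interaction is then read as a change in fluorescence polarization.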
% is scaled to controls: 0 for no effect and ±100 for the full control effect; potency is read from the fitted curve at half-maximal effect.

Row | SMILES | Potency | max response, negative = inhibition
1 | CCn1cc([N+](=O)[O-])c(C(=O)N2N=C(c3ccccc3)CC2c2ccc([N+](=O)[O-])cc2)n1 (stereo unspecified) | inconclusive: 100 µM [inhibitor, partial curve, poor fit] | 
2 | O=C(O)c1cccc([N+](=O)[O-])c1C(=O)Nc1cccc2ccccc12 |  | inactive: -11%
3 | CC(C)CCN1CCN(Cc2cccn2-c2cccnc2)CC1CCO (stereo unspecified) | inconclusive: 100 µM [inhibitor, partial curve, poor fit] | 
4 | O=C(Cc1cccc2ccccc12)Nc1ccc(Br)cc1C(=O)O | inconclusive: 79.4 µM [inhibitor, single point] | 
5 | CCOC(=O)c1sc(NC(=O)Nc2ccccc2F)nc1C | inconclusive: 89.1 µM [inhibitor, single point] | 
6 | N#Cc1ccc(CN2CC[C@@]3(CCCN(S(=O)(=O)c4ccccc4)C3)C2)cc1 | inconclusive: 100 µM [inhibitor, single point] | 
7 | Cc1ccc([C@@H]2C3COCC=C3C(C#N)=C(N)C2(C#N)C#N)o1 (stereo partly specified) | inconclusive: 89.1 µM [inhibitor, single point] | 
8 | CCn1nnnc1NCc1ccc(N2CCCC2)cc1 | inconclusive: 31.6 µM [inhibitor, single point] | 
9 | COc1cccc(C2=NCCc3cc4c(cc32)OCO4)c1OC |  | inactive: -1.81%
10 | CC(=O)OC/C=C(C)/C=C/C=C(C)/C=C/C1=C(C)CCCC1(C)C | active: 39.8 µM | 
11 | O=C(NC(CC(=O)N1CCN(c2ccccc2O)CC1)c1ccccc1)c1ccccc1Cl (stereo unspecified) |  | inactive: -19.3%
12 | COc1ccc2c(c1)c(C(C)=O)c(C)n2C |  | inactive: -7.5%
13 | O=C(OCCCOC(=O)c1ccc([N+](=O)[O-])o1)c1ccc([N+](=O)[O-])o1 |  | inactive: -12.5%
14 | COc1ccc(Cn2ccnc2)cc1Br |  | inactive: 3.13%
15 | CCOC(=S)SCC(=O)Nc1nc(-c2ccc(Br)cc2)cs1 | inconclusive: 79.4 µM [inhibitor, single point] | 
16 | Cc1cc(NC(=O)c2ccc(Cl)c(S(=O)(=O)N3CCCCC3)c2)no1 | inconclusive: 89.1 µM [inhibitor, partial curve, poor fit] | 
17 | CCN(CC)S(=O)(=O)c1ccc(Br)c(OC)c1 |  | inactive: -12.2%
18 | CC1(C)Nc2cccc3cccc(c23)N1 | inconclusive: 39.8 µM [inhibitor, single point] | 
19 | O=c1c(O)c(-c2cc(O)c(O)c(O)c2)oc2cc(O)ccc12 | inconclusive: 89.1 µM [inhibitor, partial curve, poor fit] | 
20 | COc1ccc(CC(=O)Nc2sc3c(c2C(=O)Nc2ccc(C)cc2)CCCCC3)cc1 | inconclusive: 79.4 µM [inhibitor, partial curve] | 
21 | CCNC(=O)Oc1ccc[nH]c1=O |  | inactive: -36%
22 | COc1ccc(/C=C2\CCC(C3CCCC3)C2=O)cc1Cn1cccn1 (stereo unspecified) |  | inactive: -13.3%

Sorted by SMILES length (largest number first): part of the list above
Row | SMILES | Potency | max response, negative = inhibition
11 | O=C(NC(CC(=O)N1CCN(c2ccccc2O)CC1)c1ccccc1)c1ccccc1Cl (stereo unspecified) |  | inactive: -19.3%
22 | COc1ccc(/C=C2\CCC(C3CCCC3)C2=O)cc1Cn1cccn1 (stereo unspecified) |  | inactive: -13.3%
5 | CCOC(=O)c1sc(NC(=O)Nc2ccccc2F)nc1C | inconclusive: 89.1 µM [inhibitor, single point] | 
18 | CC1(C)Nc2cccc3cccc(c23)N1 | inconclusive: 39.8 µM [inhibitor, single point] | 

(next part)

Row | SMILES | Potency | max response, negative = inhibition
23 | CSc1nc(Oc2ccc(F)cc2F)cc(C(F)(F)F)n1 |  | inactive: 13.7%
24 | [O-]/[N+](=C\c1cccc(Br)c1)c1ccccc1 | inconclusive: 89.1 µM [inhibitor, single point] | 
25 | CCOc1ccc(-n2c(=O)c3sc4ccccc4c3n(Cc3ccc(F)cc3)c2=O)cc1 | inconclusive: 100 µM [inhibitor, single point] | 
26 | CCn1c(=S)sc2nc(C)sc21 | inconclusive: 79.4 µM [inhibitor, partial curve, poor fit] | 
27 | Cc1cccc(N2N=C(C(=O)N3Cc4ccccc4CC3C(N)=O)CCC2=O)c1 (stereo unspecified) |  | inactive: -4.31%
28 | Cc1ccc(-c2nc3cnccn3c2Nc2ccc(C(C)C)cc2)o1 | inconclusive: 56.2 µM [inhibitor, partial curve, poor fit] | 
29 | COc1ccc(-c2ccc(C(c3c(C)[nH][nH]c3=O)c3c(C)[nH][nH]c3=O)o2)c([N+](=O)[O-])c1 | inconclusive: 50.1 µM [inhibitor, partial curve, poor fit] | 
30 | CCOc1ccc(NS(=O)(=O)c2cc(C(=O)N(CC)CC(=O)NCc3cccs3)ccc2C)cc1 | inconclusive: 89.1 µM [inhibitor, single point] | 
31 | CCCN(CC(=O)Nc1ccccc1OC)C(=O)Cc1ccc2c(c1)CCC2 | inconclusive: 89.1 µM [inhibitor, partial curve, poor fit] | 
32 | COC(CN(C)C(=O)C1CCC(CNS(=O)(=O)c2ccccc2)CC1)OC (stereo unspecified) |  | inactive: -6.68%
33 | COc1ccc(CNC(=O)COC(=O)C2=COCCO2)cc1 | inconclusive: 35.5 µM [inhibitor, partial curve, poor fit] | 
34 | COc1ccc(CCN(C)CCc2ccc(OC)c(OC)c2)cc1OC |  | inactive: -0.992% and inactive: 4.91%
35 | CC(C)CC(=O)N1CCN(Cc2ccccc2Cl)CC1 |  | inactive: -2.88%
36 | CCCCCC(=O)Cc1cc(O)cc2c1C(=O)Oc1cc(O)c(C(=O)O)c(CCCCC)c1O2 | inconclusive: 89.1 µM [inhibitor, single point] | 
37 | Cc1cc(NC(=O)CSc2nc(N)c(NC(=O)c3ccco3)c(=O)[nH]2)no1 | inconclusive: 39.8 µM [inhibitor, partial curve, poor fit] | 
38 | CCOC(=O)C1=C(C)N=C2SC(C(=O)OC)=CC(=O)N2C1c1ccc(OC)cc1 (stereo unspecified) | inconclusive: 79.4 µM [inhibitor, single point] | 
39 | Cc1nc(C(C)NC(=O)c2ccc(OC3CCN(Cc4ccccn4)CC3)cc2)c(C)s1 (stereo unspecified) |  | inactive: 1.44%
40 | CCN(C(=O)CSc1nc2ccccc2n1Cc1ccccc1C#N)c1ccccc1 |  | inactive: 8.61%
41 | COc1ccc(CCNC(=O)CCN2C(=O)COc3ccc(C)cc32)cc1OC | inconclusive: 70.8 µM [inhibitor, single point] | 
42 | O=C(c1cc(-c2ccc(Cl)cc2)on1)N1CCCCCC1 | inconclusive: 79.4 µM [inhibitor, single point] | 
43 | CCCCn1c(N)c(N(Cc2ccccc2OC)C(=O)CC2OC(=O)c3ccccc32)c(=O)[nH]c1=O (stereo unspecified) | inconclusive: 100 µM [inhibitor, single point] | 
44 | Cc1cccc(N(C(=O)c2ccco2)C(C(=O)NC2CCCC2)c2ccco2)c1C (stereo unspecified) |  | inactive: -3.1%

Row | SMILES | Potency | max response, negative = inhibition
45 | Cc1noc(/C=C/N(C)C)c1S(=O)(=O)N(C)Cc1ccc(F)cc1 | inconclusive: 2.82 µM [inhibitor, partial curve, poor fit] | 
46 | Cc1ccc(-n2nnc3c(=O)n(CC(N)=O)cnc32)cc1 |  | inactive: -12.2%
47 | Cc1ccccc1CCN(C(=O)c1csnn1)C(C(=O)NC1CCCC1)c1ccncc1 (stereo unspecified) | inconclusive: 17.8 µM [inhibitor, partial curve, poor fit] | 
48 | Oc1ccc(/C=N/NC(=S)Nc2cccnc2)c(O)c1O | active: 50.1 µM | 
49 | CCCc1[nH]nc2c1C(c1ccc(OC)c(CSC3=NCCS3)c1)C(C#N)=C(N)O2 (stereo unspecified) |  | inactive: -20.3%
50 | CCOC(=O)c1sc(NC(=O)CCN2CCCCCC2)c(C(=O)OCC)c1C | inconclusive: 15.8 µM [inhibitor, full curve, poor fit] | 
51 | O=S(=O)(c1ccccc1Br)N1CCN(c2ncccn2)CC1 | inconclusive: 70.8 µM [inhibitor, single point] | 
52 | CNc1ncnc2ccc(-c3ccc4c(c3)OCO4)cc12 | inconclusive: 89.1 µM [inhibitor, single point] | 
53 | NCCC[C@@H](CC(=O)N[C@@H]1CCCC[C@H]1C(=O)N[C@H](CC(=O)N[C@@H](CCC(=O)O)CC(=O)O)Cc1c[nH]c2ccccc12)NC(=O)C[C@H](CO)NC(=O)[C@@H]1CCCC[C@H]1N |  | inactive: -6.46%
54 | CC(=NNc1nc2ccccc2s1)c1ncccn1 | inconclusive: 89.1 µM [inhibitor, single point] | 
55 | O=C(c1cc(Br)ccc1O)N(Cc1ccco1)Cc1cccs1 | inconclusive: 100 µM [inhibitor, partial curve, poor fit] | 
56 | O=C(/C=C/c1cccc(C(F)(F)F)c1)NNC(=O)c1ccncc1 | inconclusive: 44.7 µM [inhibitor, partial curve, poor fit] | 
57 | CCOC(=O)N1CCN(C(=O)CSCC(=O)N=c2sc3cc(OC)ccc3n2C)CC1 | inconclusive: 6.31 µM [inhibitor, full curve, poor fit] | 
58 | COc1ccc(NC2=C(Cl)C(=O)N(CCc3ccccc3)C2=O)cc1 | inconclusive: 3.16 µM [inhibitor, partial curve, poor fit] | 
59 | O=c1c(Cl)c(NC2CC2)cnn1-c1ccccc1 | inconclusive: 70.8 µM [inhibitor, single point] | 
60 | CC(C)NCCOCCOc1ccccc1F |  | inactive: -3.22%
61 | CC(=O)O[C@@H]1[C@@H](O)CN[C@@H]1Cc1ccccc1 | inconclusive: 79.4 µM [inhibitor, partial curve, poor fit] | 
62 | CCOc1ccc(CNC(=O)C2CCN(C(=O)N3CC(CC)Oc4ccccc43)CC2)cc1 (stereo unspecified) |  | inactive: 2.3%
63 | COc1ccc(-c2nc(C(=O)N3CCN(C)CC3)sc2-c2ccc(OC)cc2)cc1 | inconclusive: 44.7 µM [inhibitor, partial curve, poor fit] | 
64 | OCCC1CN(Cc2nc3ccccc3s2)CCN1CCc1ccccc1 (stereo unspecified) | inconclusive: 100 µM [inhibitor, single point] | 
65 | COc1cc(/C=C2\C(=O)ON=C2c2ccccc2)cc(Br)c1O | active: 25.1 µM | 
66 | CCOC(=O)C(Cc1ccccc1)NC(=O)CCc1c(C)nc2nc(C)nn2c1C (stereo unspecified) | inconclusive: 17.8 µM [inhibitor, partial curve, poor fit] | 
